Among the data in the supplement of paper PMC9588766 are cell viability values, retold here.

What follows is the remainder of the data, with few or none of the lowest values.

This experiment concerns PDC-DUC18828. Nature of the experiment: cell viability of compound + 1 nM pemigatinib relative to pemigatinib-only (DMSO) wells (fraction); PDC-DUC18828 is a patient-derived cholangiocarcinoma cell line; higher = less growth inhibition. The following applies: first compound 1 µM; pemigatinib concentration 1 nM; 72 h. The method, then:
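Selleck Bioactive library screen in the patient-derived FGFR2 fusion-positive ICC cell line PDC-DUC18828 (500 cells/well). Each compound was tested at 1 uM with 1 nM pemigatinib, in triplicate, for 72 h. Viability was read by CellTiter-Glo and normalised to plate DMSO controls. Value is the paper's averaged normalised viability.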
For `Cc1ccc(C(=O)NCCCCCC(=O)Nc2ccccc2N)cc1` + CCN1C(=O)N(c2c(F)c(OC)cc(OC)c2F)Cc2cnc3[nH]c(CN4CCOCC4)cc3c21 [pemigatinib], the cell viability was determined as 1.02.
On to `CN1C2CCC1CC(OC(=O)C(O)c1ccccc1)C2` (centres undefined) [Homatropine Bromide] + CCN1C(=O)N(c2c(F)c(OC)cc(OC)c2F)Cc2cnc3[nH]c(CN4CCOCC4)cc3c21 [pemigatinib], for which the cell viability was found to be 0.878.
For `Cc1nc2c(-c3cnc(N)nc3)nc(N3CCOCC3)nc2n1C(C)C` + CCN1C(=O)N(c2c(F)c(OC)cc(OC)c2F)Cc2cnc3[nH]c(CN4CCOCC4)cc3c21 [pemigatinib], the cell viability was found to be 0.242.
`Cc1ccccc1-n1c(Cn2nc(-c3cccc(O)c3)c3c(N)ncnc32)nc2cccc(C)c2c1=O` + CCN1C(=O)N(c2c(F)c(OC)cc(OC)c2F)Cc2cnc3[nH]c(CN4CCOCC4)cc3c21 [pemigatinib]: the cell viability is 0.96.
